Source: PubChem BioAssay AID1159579 (Peter MacCallum Cancer Centre, 2015)
Aim: 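Find genes whose silencing alters migration of lymphatic endothelial cells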 (follow-up of hits). Cell system: human dermal lymphatic endothelial cells. Reagents: single siRNA against human genes, 25 nM. Measured: 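High content images of wound closure area and cell nuclei counts, each the average of two wells, expressed against mock transfection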. Scale: migration relative to mock: higher = more migration into the scratch; mean nuclei count: higher = more cells remaining. Call rule: 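Called active when the migration ratio is 0.6 or lower (impaired) or 1.3 or higher (accelerated), but inactive whenever the mean nuclei count falls under 3300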. Calls: active = migration changed (impaired or accelerated); inactive = no migration change, or too few cells.
In all, the deposit lists about 2,000 reagents; shown is a part drawn at random. In the full data, 549 (27%) got an active call. 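Some migration ratios are negative; siRNAs with too few cells are inactive whatever their migration ratio.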 The numbers tell different reagents against one gene apart. Not stated in the record: the time to read-out.

CEP44 (GeneID 80817) #1 | migration relative to mock: 0.9; migration and cell number class: no change in migration or cell number; mean nuclei count: 5806; call: inactive
CEP44 (GeneID 80817) #2 | migration relative to mock: 0.91; migration and cell number class: no change in migration or cell number; mean nuclei count: 6344; call: inactive
CEP44 (GeneID 80817) #3 | migration relative to mock: 1.29; migration and cell number class: no change in migration or cell number; mean nuclei count: 4746; call: inactive
CEP44 (GeneID 80817) #4 | migration relative to mock: 0.93; migration and cell number class: no change in migration or cell number; mean nuclei count: 5784; call: inactive
LRRC57 (GeneID 255252) #1 | migration relative to mock: 0.43; migration and cell number class: migration reduced; mean nuclei count: 5106; call: active
LRRC57 (GeneID 255252) #2 | migration relative to mock: 0.05; migration and cell number class: migration reduced; mean nuclei count: 4159; call: active
LRRC57 (GeneID 255252) #3 | migration relative to mock: 0.66; migration and cell number class: no change in migration or cell number; mean nuclei count: 4773; call: inactive
LRRC57 (GeneID 255252) #4 | migration relative to mock: 0.53; migration and cell number class: migration reduced; mean nuclei count: 4319; call: active
RELT (GeneID 84957) #1 | migration relative to mock: 0.44; migration and cell number class: migration reduced; mean nuclei count: 4864; call: active
RELT (GeneID 84957) #2 | migration relative to mock: 0.96; migration and cell number class: no change in migration or cell number; mean nuclei count: 5238; call: inactive
RELT (GeneID 84957) #3 | migration relative to mock: 0.49; migration and cell number class: migration reduced; mean nuclei count: 5809; call: active
RELT (GeneID 84957) #4 | migration relative to mock: 0.69; migration and cell number class: no change in migration or cell number; mean nuclei count: 5776; call: inactive
HLA-DRB4 (GeneID 3126) #1 | migration relative to mock: 0.68; migration and cell number class: no change in migration or cell number; mean nuclei count: 5434; call: inactive
HLA-DRB4 (GeneID 3126) #2 | migration relative to mock: 0.6; migration and cell number class: migration reduced; mean nuclei count: 6207; call: active
HLA-DRB4 (GeneID 3126) #3 | migration relative to mock: 0.86; migration and cell number class: no change in migration or cell number; mean nuclei count: 7164; call: inactive
HLA-DRB4 (GeneID 3126) #4 | migration relative to mock: 0.64; migration and cell number class: no change in migration or cell number; mean nuclei count: 6236; call: inactive
